Laboratory results from PubChem BioAssay AID256 (DTP/NCI, 2004).
The list is a part of this screen's results and no random one: it gathers tests that were run many times, whatever their T/C, doses with no T/C, and many T/C values between a quarter and a half above the control. Other doses and runs of a compound stand elsewhere. T/C gives the treated animals as a percentage of the vehicle group. Some entries give survivors of the animals treated and no T/C: the source files T/C as zero there, which appears to mark a toxic dose or a test without result, not a measured value. Some doses without a T/C left all or most animals alive at the check, yet need not have been tolerated: survival well below the control is almost never listed, so the zero probably covers shortened survival too. Survivors were counted at the toxicity check, usually on the fifth day, unless a day is given; later deaths do not show. Schedules are NCI's codes, taken here to give the interval after Q, in days (D) or hours (H), and the number of doses after X. Marks such as (2×) stand for listed records that agree. Some entries were tested several times; the results are listed from low to high. For survival time, this PubChem deposit counts one and a half times the control or more as active, and values a quarter to a half above the control carry no call in these data; other NCI protocols may use other cut-offs. Some T/C values are followed by the survivors on the day toxicity was checked, most often the fifth; where none is given, no animal had died by that day.

Test system: CD2F1 mice, L1210 leukemia ip, survival T/C
Assay: NCI In Vivo Anticancer Drug Screen. Data for tumor model L1210 Leukemia (intraperitoneal) in CD2F1 (CDF1) mice
Details: higher T/C = longer survival
Summary of the method: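 Ratio T/C, where T is the treated-group value and C the vehicle-dosed control value, from mice implanted with a transplantable tumor.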

[1] = T/C endpoint: mean survival time, dose: 400.0 mg/kg/injection, schedule: Q04DX003 (ip), vehicle: saline with Tween-80
[2] = T/C endpoint: mean survival time, dose: 100.0 mg/kg/injection, schedule: Q01DX001 (ip), vehicle: saline
[3] = T/C endpoint: mean survival time, dose: 200.0 mg/kg/injection, schedule: Q01DX001 (ip), vehicle: saline
[4] = T/C endpoint: mean survival time, dose: 400.0 mg/kg/injection, schedule: Q01DX001 (ip), vehicle: saline
[5] = T/C endpoint: mean survival time, dose: 200.0 mg/kg/injection, schedule: Q01DX009 (ip), vehicle: saline
[6] = T/C endpoint: mean survival time, dose: 200.0 mg/kg/injection, schedule: Q01DX009 (ip), vehicle: saline with Tween-80
[7] = T/C endpoint: mean survival time, dose: 400.0 mg/kg/injection, schedule: Q01DX009 (ip), vehicle: saline with Tween-80
[8] = T/C endpoint: mean survival time, dose: 300.0 mg/kg/injection, schedule: Q01DX001 (ip), vehicle: saline
[9] = T/C endpoint: mean survival time, dose: 200.0 mg/kg/injection, schedule: Q04DX003 (ip), vehicle: saline
[10] = T/C endpoint: mean survival time, dose: 400.0 mg/kg/injection, schedule: Q04DX003 (ip), vehicle: saline

NC(C(=O)O)c1ccc(CBr)cc1 (configuration not stated)
survivor count (T/C endpoint: median survival time, dose: 25.0 mg/kg/injection, schedule: Q01DX009 (ip), vehicle: saline with Tween-80): 3 of 6 | T/C (T/C endpoint: median survival time, dose: 50.0 mg/kg/injection, schedule: Q01DX009 (ip), vehicle: saline with Tween-80): 135 % of control | survivor count (T/C endpoint: median survival time, dose: 100.0 mg/kg/injection, schedule: Q01DX009 (ip), vehicle: saline with Tween-80): 2 of 6 and 3 of 6 | survivor count (T/C endpoint: median survival time, dose: 200.0 mg/kg/injection, schedule: Q01DX009 (ip), vehicle: saline with Tween-80): 0 of 6 and 1 of 6

COC(=O)c1ccc(C)cc1C(=O)OC
survivor count [1]: 6 of 6

c1ccc2c(c1)C1c3cccc[n+]3C2C2C1CC1C3c4ccccc4C(C12)[n+]1ccccc13 (configuration not stated)
survivor count (T/C endpoint: mean survival time, dose: 25.0 mg/kg/injection, schedule: Q04DX003 (ip), vehicle: saline): 6 of 6 | survivor count (T/C endpoint: mean survival time, dose: 50.0 mg/kg/injection, schedule: Q04DX003 (ip), vehicle: saline): 2 of 6

Cc1ccccc1[P+](Cc1ccccc1)(c1ccccc1)c1ccccc1
survivor count [2]: 0 of 6 | survivor count [3]: 0 of 6 | survivor count [4]: 0 of 6

Nc1nc(N)nc(-c2ccccn2)n1
T/C (T/C endpoint: mean survival time, dose: 100.0 mg/kg/injection, schedule: Q01DX009 (ip), vehicle: saline): 126 % of control [2 of 3 alive] | survivor count [5]: 0 of 3

CN(C)P1(=O)OCC(C(C)(C)C)CO1 (configuration not stated)
survivor count (T/C endpoint: mean survival time, dose: 100.0 mg/kg/injection, schedule: Q04DX002 (ip), vehicle: saline with Tween-80): 3 of 3 | survivor count (T/C endpoint: mean survival time, dose: 200.0 mg/kg/injection, schedule: Q04DX002 (ip), vehicle: saline with Tween-80): 0 of 3 and 2 of 3 | survivor count (T/C endpoint: mean survival time, dose: 400.0 mg/kg/injection, schedule: Q04DX002 (ip), vehicle: saline with Tween-80): 0 of 3 (2×)

COc1cc2c(cc1OC)[C@@H]1C(=O)c3ccc4c(c3O[C@@H]1CO2)C[C@H](C(C)C)O4
T/C (T/C endpoint: median survival time, dose: 50.0 mg/kg/injection, schedule: Q01DX005 (ip), vehicle: Klucel (hydroxypropylcellulose) (HPC), evaluated on day 20): 135 % of control | T/C (T/C endpoint: median survival time, dose: 50.0 mg/kg/injection, schedule: Q01DX005 (ip), vehicle: Klucel (hydroxypropylcellulose) (HPC), evaluated on day 30): 125 % of control | T/C (T/C endpoint: median survival time, dose: 83.33 mg/kg/injection, schedule: Q01DX005 (ip), vehicle: Klucel (hydroxypropylcellulose) (HPC)): 131 % of control | survivor count (T/C endpoint: median survival time, dose: 138.89 mg/kg/injection, schedule: Q01DX005 (ip), vehicle: Klucel (hydroxypropylcellulose) (HPC)): 2 of 6

COc1cc(/C=C2\SC(=O)NC2=O)ccc1O
survivor count [6]: 0 of 6 | survivor count [7]: 0 of 6

CCOC(=O)c1[nH]c(=S)[nH]c1C(=O)OCC
survivor count [3]: 0 of 6 | survivor count [4]: 0 of 6

CCN(CC)c1cccc(OC(=O)NC)c1
survivor count (T/C endpoint: mean survival time, dose: 40.0 mg/kg/injection, schedule: Q01DX001 (ip), vehicle: saline): 0 of 6 | survivor count (T/C endpoint: mean survival time, dose: 75.0 mg/kg/injection, schedule: Q01DX001 (ip), vehicle: saline): 1 of 6 | survivor count (T/C endpoint: mean survival time, dose: 80.0 mg/kg/injection, schedule: Q01DX001 (ip), vehicle: saline): 0 of 6 | survivor count (T/C endpoint: mean survival time, dose: 150.0 mg/kg/injection, schedule: Q01DX001 (ip), vehicle: saline): 0 of 6 | survivor count [8]: 0 of 6

NC(CSC(c1ccccc1)(c1ccccc1)c1ccc(CBr)cc1)C(=O)O (configuration not stated)
T/C (T/C endpoint: mean survival time, dose: 200.0 mg/kg/injection, schedule: Q01DX009 (ip), vehicle: other): 140 % of control [4 of 6 alive]

OC1C2CCC(C2)C1C(O)(C(F)(F)F)C(F)(F)F (configuration not stated)
survivor count (T/C endpoint: mean survival time, dose: 25.0 mg/kg/injection, schedule: Q04DX003 (ip), vehicle: saline with Tween-80): 4 of 6

O=C1NCC(Br)C(=O)N1 (configuration not stated)
survivor count [7]: 4 of 6

CC1(c2ccc(Cl)cc2)OC(=O)C(=Cc2ccc([N+](=O)[O-])s2)C(=O)O1 (configuration not stated)
survivor count [6]: 4 of 6

O=S(=O)(O)c1ccc(N=Nc2cc(O)cc3ccccc23)cc1
survivor count (T/C endpoint: mean survival time, dose: 50.0 mg/kg/injection, schedule: Q01DX001 (ip), vehicle: saline): 3 of 3 | survivor count [2]: 3 of 3 | survivor count [3]: 3 of 3

CCCOC(=O)c1cc([N+](=O)[O-])cc([N+](=O)[O-])c1Sc1ncnc2nc[nH]c12
survivor count (T/C endpoint: mean survival time, dose: 80.0 mg/kg/injection, schedule: Q01DX005 (ip), vehicle: other): 1 of 3

CCN=c1cc2oc3cc(NCC)c(C)cc3c(-c3ccccc3C(=O)OCC)c-2cc1C
survivor count (T/C endpoint: mean survival time, dose: 20.0 mg/kg/injection, schedule: Q04DX003 (ip), vehicle: saline): 3 of 6 | survivor count (T/C endpoint: mean survival time, dose: 40.0 mg/kg/injection, schedule: Q04DX003 (ip), vehicle: saline): 0 of 6 | survivor count (T/C endpoint: mean survival time, dose: 100.0 mg/kg/injection, schedule: Q04DX003 (ip), vehicle: saline): 0 of 6 | survivor count [9]: 0 of 6 | survivor count [10]: 0 of 6

Cc1cc(C)n(C(=S)[S-])n1.Cc1cc(C)n(C(=S)[S-])n1.[Pt+2]
survivor count (T/C endpoint: mean survival time, dose: 200.0 mg/kg/injection, schedule: Q04DX003 (ip), vehicle: saline with Tween-80): 6 of 6 | survivor count [1]: 6 of 6

COc1cc(C2=NCCc3cc4c(cc32)OCO4)cc(OC)c1OC
T/C (T/C endpoint: median survival time, dose: 100.0 mg/kg/injection, schedule: Q01DX009 (ip), vehicle: saline): 127 % of control | survivor count (T/C endpoint: median survival time, dose: 200.0 mg/kg/injection, schedule: Q01DX009 (ip), vehicle: saline): 0 of 6 and 4 of 6

CCOc1ccc(-n2c(O)c(N=Nc3ccccc3OC)c(=O)n(-c3ccccc3)c2=S)cc1
survivor count (T/C endpoint: mean survival time, dose: 400.0 mg/kg/injection, schedule: Q01DX001 (ip), vehicle: saline with Tween-80): 3 of 6

O=C1C(Br)=C(Br)C(=O)C1(Br)Br
survivor count (T/C endpoint: mean survival time, dose: 100.0 mg/kg/injection, schedule: Q01DX009 (ip), vehicle: saline with Tween-80): 0 of 6 | survivor count [6]: 0 of 6 | survivor count [7]: 0 of 6

O=C(O)CN(CCO)CCN(CC(=O)O)CC(=O)O
survivor count [9]: 1 of 6 | survivor count [10]: 0 of 6

CCCC1(CCC)NC(=O)NC1=O
survivor count (T/C endpoint: mean survival time, dose: 400.0 mg/kg/injection, schedule: Q04DX003 (ip), vehicle: other): 5 of 6

CCOC(=O)NC(C)(C)CN(C(=O)OCC)C(C)(C)CO
survivor count [5]: 6 of 6

COc1ccc(Cc2cncc3cc(OC)c(OC)cc23)cc1OC
survivor count [4]: 1 of 6

CC(=O)Oc1[nH]c(=O)c2cccc3c2c1CCC3
survivor count (T/C endpoint: median survival time, dose: 800.0 mg/kg/injection, schedule: Q01DX009 (ip), vehicle: saline with Tween-80): 4 of 6

C#CCCCOC(=O)Nc1ccccc1
survivor count (T/C endpoint: mean survival time, dose: 400.0 mg/kg/injection, schedule: Q04DX003 (ip), vehicle: Klucel (hydroxypropylcellulose) (HPC)): 1 of 6

CCC(C)NCCNCCNC(C)CC (configuration not stated)
survivor count (T/C endpoint: mean survival time, dose: 100.0 mg/kg/injection, schedule: Q04DX003 (ip), vehicle: saline sonified): 1 of 6 | survivor count (T/C endpoint: mean survival time, dose: 200.0 mg/kg/injection, schedule: Q04DX003 (ip), vehicle: saline sonified): 0 of 6 | survivor count (T/C endpoint: mean survival time, dose: 400.0 mg/kg/injection, schedule: Q04DX003 (ip), vehicle: saline sonified): 0 of 6

CCCC[S+](CCCC)CC(=O)c1ccc(-c2ccccc2)cc1
survivor count (T/C endpoint: mean survival time, dose: 6.25 mg/kg/injection, schedule: Q01DX009 (ip), vehicle: saline): 6 of 6

CC(=O)CC(=O)Nc1ccc(N=Nc2ccccc2)cc1
survivor count [7]: 1 of 6

COc1cc2c(cc1OC)C(CCN)=NCC2
survivor count [9]: 3 of 6 | survivor count [10]: 0 of 6

N#CC1CCCC[N-]1.[NH-]CC[N-]CC[NH-].[Pt+4] (configuration not stated)
survivor count (T/C endpoint: mean survival time, dose: 200.0 mg/kg/injection, schedule: Q01DX009 (ip), vehicle: water): 0 of 6

CCN1CCC2OCOC2C1 (configuration not stated)
survivor count [8]: 0 of 6

O=C(O)c1c(F)c(F)c(F)c(Br)c1F
survivor count [1]: 2 of 6

CC([NH-])C([NH-])O.O=S(=O)(O)O.[Pt+2] (configuration not stated)
T/C (T/C endpoint: mean survival time, dose: 6.25 mg/kg/injection, schedule: Q04DX003 (ip), vehicle: saline): 130 % of control
